Assay results published in paper PMC3163677.
No constants are given. Whether binding was seen depends on the method and setting. Binding seen in cells or lysates may run through a third protein. Some entries that bind do so weakly or less than the wild type.

Amino acid sequences for entries named in this document (tags omitted).
UniProt P14859: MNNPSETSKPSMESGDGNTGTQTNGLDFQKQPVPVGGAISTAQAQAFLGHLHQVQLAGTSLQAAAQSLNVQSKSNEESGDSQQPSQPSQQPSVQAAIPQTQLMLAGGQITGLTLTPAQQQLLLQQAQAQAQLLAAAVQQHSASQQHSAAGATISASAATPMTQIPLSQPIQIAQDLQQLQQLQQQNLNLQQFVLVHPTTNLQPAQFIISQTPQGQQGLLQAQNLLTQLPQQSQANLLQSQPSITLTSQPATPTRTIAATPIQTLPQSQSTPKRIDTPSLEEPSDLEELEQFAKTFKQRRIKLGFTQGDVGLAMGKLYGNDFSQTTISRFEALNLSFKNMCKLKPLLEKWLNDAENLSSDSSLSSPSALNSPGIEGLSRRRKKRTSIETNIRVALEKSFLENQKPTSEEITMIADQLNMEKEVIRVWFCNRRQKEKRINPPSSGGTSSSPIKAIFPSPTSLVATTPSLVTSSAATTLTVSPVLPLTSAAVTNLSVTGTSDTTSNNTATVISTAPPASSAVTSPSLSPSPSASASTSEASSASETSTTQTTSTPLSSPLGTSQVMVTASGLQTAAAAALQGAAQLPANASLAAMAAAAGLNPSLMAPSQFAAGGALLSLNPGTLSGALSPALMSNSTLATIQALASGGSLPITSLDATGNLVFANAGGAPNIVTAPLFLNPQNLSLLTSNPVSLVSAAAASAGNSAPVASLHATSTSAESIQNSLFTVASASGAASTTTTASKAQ
UniProt Q9H1A4: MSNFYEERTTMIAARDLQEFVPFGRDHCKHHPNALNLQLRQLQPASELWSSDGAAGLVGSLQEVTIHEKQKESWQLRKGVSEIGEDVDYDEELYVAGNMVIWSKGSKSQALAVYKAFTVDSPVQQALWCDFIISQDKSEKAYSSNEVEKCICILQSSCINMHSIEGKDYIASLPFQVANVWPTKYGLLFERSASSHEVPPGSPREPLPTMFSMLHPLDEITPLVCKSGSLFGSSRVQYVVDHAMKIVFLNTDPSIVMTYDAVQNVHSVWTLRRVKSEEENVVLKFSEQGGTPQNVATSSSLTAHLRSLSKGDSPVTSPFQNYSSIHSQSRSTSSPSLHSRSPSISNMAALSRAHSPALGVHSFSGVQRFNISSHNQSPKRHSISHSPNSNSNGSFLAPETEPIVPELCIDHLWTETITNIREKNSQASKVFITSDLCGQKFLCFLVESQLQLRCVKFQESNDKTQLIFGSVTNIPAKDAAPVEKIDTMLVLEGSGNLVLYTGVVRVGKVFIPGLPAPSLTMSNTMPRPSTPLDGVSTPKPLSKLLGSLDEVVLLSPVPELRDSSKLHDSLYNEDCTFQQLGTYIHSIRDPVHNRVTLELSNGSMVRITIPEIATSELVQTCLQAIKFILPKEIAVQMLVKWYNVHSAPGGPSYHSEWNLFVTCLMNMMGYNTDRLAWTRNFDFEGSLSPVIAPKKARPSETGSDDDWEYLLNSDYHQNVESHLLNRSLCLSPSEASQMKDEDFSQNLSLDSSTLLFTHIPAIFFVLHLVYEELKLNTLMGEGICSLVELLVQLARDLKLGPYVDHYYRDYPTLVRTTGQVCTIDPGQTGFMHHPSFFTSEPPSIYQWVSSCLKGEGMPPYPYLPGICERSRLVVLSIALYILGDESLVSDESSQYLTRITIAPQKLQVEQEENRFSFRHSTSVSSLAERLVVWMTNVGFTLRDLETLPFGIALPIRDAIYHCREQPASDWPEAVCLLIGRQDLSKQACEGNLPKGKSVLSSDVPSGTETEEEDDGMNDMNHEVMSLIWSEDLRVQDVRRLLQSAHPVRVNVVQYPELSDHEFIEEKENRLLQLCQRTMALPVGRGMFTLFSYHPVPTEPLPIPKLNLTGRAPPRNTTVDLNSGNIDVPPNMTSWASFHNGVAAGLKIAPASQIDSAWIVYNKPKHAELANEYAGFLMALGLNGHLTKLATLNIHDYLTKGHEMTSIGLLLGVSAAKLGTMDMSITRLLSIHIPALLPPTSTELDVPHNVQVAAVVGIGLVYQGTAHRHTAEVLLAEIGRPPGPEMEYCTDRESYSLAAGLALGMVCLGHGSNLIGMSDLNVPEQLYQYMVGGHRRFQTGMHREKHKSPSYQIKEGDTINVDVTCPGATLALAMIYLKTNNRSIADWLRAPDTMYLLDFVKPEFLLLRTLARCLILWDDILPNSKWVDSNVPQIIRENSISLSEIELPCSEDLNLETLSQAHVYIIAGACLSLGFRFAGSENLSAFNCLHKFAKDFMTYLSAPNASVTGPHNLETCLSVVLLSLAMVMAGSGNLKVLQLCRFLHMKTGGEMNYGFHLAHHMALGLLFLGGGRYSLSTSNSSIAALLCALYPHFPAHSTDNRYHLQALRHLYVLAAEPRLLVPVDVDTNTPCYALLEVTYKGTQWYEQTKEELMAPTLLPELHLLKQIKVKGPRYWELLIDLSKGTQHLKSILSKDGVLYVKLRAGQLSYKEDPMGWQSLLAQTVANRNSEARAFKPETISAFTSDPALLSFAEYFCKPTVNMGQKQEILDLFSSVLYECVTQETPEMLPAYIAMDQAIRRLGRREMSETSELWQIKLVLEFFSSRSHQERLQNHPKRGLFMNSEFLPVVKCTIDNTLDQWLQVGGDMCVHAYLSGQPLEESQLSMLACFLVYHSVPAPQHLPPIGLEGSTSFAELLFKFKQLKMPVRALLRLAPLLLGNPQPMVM

Molecular target: Oct1 phosphorylated at serine 335 (Oct1^pS335) (human (endogenous in HeLa)) (UniProt P14859)
Experiment: co-IP; whole cell extracts from nocodozole-arrested (18 hr) HeLa cells immunoprecipitated with anti-Oct1^pS335 antibodies; Western blot with anti-Cdk11, anti-APC1 or pan-Oct1; 500 ug extract, 4 ug antibody, IP buffer (50 mM Tris pH 8.0, 20% glycerol, 0.5 mM EDTA, 0.1% NP-40, 1 mM DTT), overnight at 4 C, magnetic beads

anaphase-promoting complex large subunit APC1 (from UniProt Q9H1A4 1-1944)
binding: binds
